According to article PMC8999500:
No constants are given. Whether binding was seen depends on the method and setting. Some entries that bind do so weakly or less than the wild type.

Molecular target: T1, Trm112 (S. cerevisiae) (UniProt P53738)
T1 sequence: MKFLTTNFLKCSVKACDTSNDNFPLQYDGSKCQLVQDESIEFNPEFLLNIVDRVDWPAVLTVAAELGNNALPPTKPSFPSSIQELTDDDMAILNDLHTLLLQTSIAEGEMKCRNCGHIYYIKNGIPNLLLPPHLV
Assay: co-purification (Ni-NTA affinity, then SEC); Trm11 and His x 6-Trm112 co-expressed in E. coli; supernatant of disrupted cells on Ni-NTA in buffer A (50 mM Tris-HCl pH 7.6, 5 mM MgCl2, 200 mM KCl, 20 mM imidazole), eluted with 500 mM imidazole; tag cut with HRV3C, second Ni-NTA (flow-through), Superdex 75 in buffer C; fractions assessed by 15% SDS-PAGE

B1: Trm11 (enzyme, UniProt Q12463 1-433)
chain: MKKYLLYMVQVHLNFRRAELESLADLYNLSIDFSQYDANSPFFIVELENDQQAKDWIKRSILTRGIYEYWGQGTTLDELHKDIQRQSNFEQDLQLKFKHSTFKFEFECYKGNSKAKRVEQIETFRYLGFEGKIDMKHPQEVFTVIEEYTPISENVGGKTPTRIYFGRQVQMSNRSAMEKYDLKKRPYKGTTSFEAELSLVSANIAQVKPGTIMYDPFAGTGSFLVAGGHFGSLVIGSDIDGRMIRGKGAQVNISANFKKYGESSQFLDVLTMDFTNNALRNNLVIDTILCDPPYGIRESIKVLGAKDPERFLGKEDMEIDGEKAYLRRDYIPTKKPYALDSLLDDLLQYSSERLPIGGRLAFWMPTANDANIETIVPMHENLELKYNCVQEFNKWSRRLLVYINRGSTFNGSSNHGIKRSKDNFRERYFNNFN
- binding: binds
